Measurements taken from paper PMC5767185, “Arabidopsis G-Protein β Subunit AGB1 Interacts with BES1 to Regulate Brassinosteroid Signaling and Cell Elongation” (Frontiers in Plant Science, 2017).
Results are given in words; binding and its absence hold for the method and conditions named. For some of these results: In cells and extracts the contact can be indirect. Some binding calls cover weakened binding; strength is not graded here. For some of these results: Where a sequence is shown, tags or fusion partners need not be part of it.

Chains of the proteins cited; added tags and fusions are not shown.
UniProt Q9LN63: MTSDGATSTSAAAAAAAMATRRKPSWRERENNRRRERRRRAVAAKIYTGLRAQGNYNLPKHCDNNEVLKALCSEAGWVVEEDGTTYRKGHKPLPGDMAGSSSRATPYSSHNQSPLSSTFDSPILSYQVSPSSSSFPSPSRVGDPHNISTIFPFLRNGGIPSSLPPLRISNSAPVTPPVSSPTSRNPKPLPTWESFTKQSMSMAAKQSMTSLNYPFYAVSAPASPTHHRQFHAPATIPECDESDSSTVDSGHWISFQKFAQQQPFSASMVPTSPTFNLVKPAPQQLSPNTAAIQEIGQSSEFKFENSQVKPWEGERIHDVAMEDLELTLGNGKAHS
UniProt P0A850: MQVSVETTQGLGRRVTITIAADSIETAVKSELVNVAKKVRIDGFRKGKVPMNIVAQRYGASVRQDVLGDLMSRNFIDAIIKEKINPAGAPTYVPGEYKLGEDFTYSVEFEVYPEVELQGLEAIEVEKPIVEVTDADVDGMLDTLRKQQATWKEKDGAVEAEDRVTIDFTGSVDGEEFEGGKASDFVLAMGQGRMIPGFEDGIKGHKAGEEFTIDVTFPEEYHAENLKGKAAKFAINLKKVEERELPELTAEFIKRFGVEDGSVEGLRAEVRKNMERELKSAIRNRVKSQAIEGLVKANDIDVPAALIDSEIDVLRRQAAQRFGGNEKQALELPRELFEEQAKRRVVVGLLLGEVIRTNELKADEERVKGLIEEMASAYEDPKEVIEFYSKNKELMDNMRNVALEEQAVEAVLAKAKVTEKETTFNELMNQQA

How the values were obtained:
GST-AGB1 (Arabidopsis) = target: T1, GST-AGB1 (Arabidopsis) (UniProt P49177); test: pull-down; semi-in vivo: GST-AGB1 or GST on glutathione Sepharose beads, incubated 2 h at 4°C with extracts of 35S::BES1-GFP-Flag Arabidopsis seedlings treated with 2 μM BL for 2 h; 50 mM Tris–HCl pH 7.5, 150 mM NaCl, 1 mM EDTA, 10% glycerol, 0.2% Triton X-100; detected with anti-Flag antibody; only the target purified
T1 sequence: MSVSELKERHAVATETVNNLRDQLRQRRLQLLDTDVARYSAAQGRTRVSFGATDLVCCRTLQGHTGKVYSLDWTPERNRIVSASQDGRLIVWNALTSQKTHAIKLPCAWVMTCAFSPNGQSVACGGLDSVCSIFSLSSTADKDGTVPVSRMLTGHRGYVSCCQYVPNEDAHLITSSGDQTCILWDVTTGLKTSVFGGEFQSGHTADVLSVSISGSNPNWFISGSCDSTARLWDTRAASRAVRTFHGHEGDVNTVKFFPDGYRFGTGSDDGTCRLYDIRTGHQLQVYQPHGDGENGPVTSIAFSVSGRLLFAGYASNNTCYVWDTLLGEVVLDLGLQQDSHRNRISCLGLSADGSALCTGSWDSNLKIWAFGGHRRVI

GST-BES1 (Arabidopsis) = GST-BES1 (Arabidopsis) (UniProt Q9LN63); test: pull-down; GST-BES1 held on glutathione beads (MagneGST), His-AGB1 or His-TF added, lysis buffer without EDTA, 2 h at 4°C; prey detected with anti-His antibody; both purified
[1] = target: GAL4 DNA-binding domain (BD) fused to full-length BES1 (Arabidopsis) (UniProt Q9LN63); test: two-hybrid; GAL4 system, pGBKT7 baits (BES1 and deletions) and pGADT7 prey (AGB1) in strain AH109; growth on SD-T-L-H-A plates, 5 days
[2] = target: T2, BIM1 (LexA yeast two-hybrid fusion) (Arabidopsis) (UniProt Q9LEZ3); test: two-hybrid; LexA system, pLexA and pB42AD fusions with p8op-LacZ in strain EGY48; β-galactosidase activity and plate assay
T2 sequence: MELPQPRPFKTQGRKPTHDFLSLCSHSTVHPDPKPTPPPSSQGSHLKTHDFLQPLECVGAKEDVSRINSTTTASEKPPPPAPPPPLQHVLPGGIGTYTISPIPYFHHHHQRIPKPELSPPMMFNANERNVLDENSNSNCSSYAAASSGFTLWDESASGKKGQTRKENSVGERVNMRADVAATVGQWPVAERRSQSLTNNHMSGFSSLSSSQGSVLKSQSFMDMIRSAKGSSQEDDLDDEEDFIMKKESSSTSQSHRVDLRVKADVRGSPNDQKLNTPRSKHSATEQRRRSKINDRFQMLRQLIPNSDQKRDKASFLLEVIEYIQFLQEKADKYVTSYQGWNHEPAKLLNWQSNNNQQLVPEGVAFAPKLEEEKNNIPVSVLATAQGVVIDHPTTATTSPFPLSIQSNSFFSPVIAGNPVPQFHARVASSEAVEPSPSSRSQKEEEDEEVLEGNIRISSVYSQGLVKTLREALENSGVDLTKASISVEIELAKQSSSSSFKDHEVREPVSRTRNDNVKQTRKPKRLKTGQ

With “BES1–GFP–Flag (from UniProt Q9LN63 1-335)” the binding (GST-AGB1 (Arabidopsis)) was “binds”.

With “histidine-tagged trigger factor (His-TF) (from UniProt P0A850 1-432)” the binding (GST-BES1 (Arabidopsis)) was “no binding”.

B1: GAL4 AD fused to full-length AGB1 (AD-AGB1) (protein, UniProt P49177 1-377)
chain: T1 sequence
In the case of B1, the binding [1] is reported as “binds”.

B2: full-length AGB1 (LexA yeast two-hybrid fusion) (protein, UniProt P49177 1-377)
chain: T1 sequence
For B2, the binding [2] was “binds”.
